The data set has as its system Ena/VASP proteins (Mena, VASP) in Rat2 cells. In words: Immunofluorescence localization of endogenous Ena/VASP proteins. The data set is classed as cell-based, rat. To be noted: Rat2 cells incubated with 150 nM cytochalasin D.

In the case of `C=C1[C@@H](C)[C@H]2[C@H](Cc3ccccc3)NC(=O)[C@]23[C@H](OC(C)=O)/C=C/[C@@](C)(O)C(=O)[C@@H](C)C/C=C/[C@H]3[C@@H]1O` [cytochalasin D, reference compound], the Ena/VASP localization entry is listed as “shifted away from the leading edge”.

These data come from US6716597B2, “Methods and products for regulating cell motility” (priority 2000, dated 2004).
